{"source": "PubChem BioAssay AID1347423", "about": "(Functional Genomics Laboratory (NCATS/FGL), 2020)", "note": "Screen size: about 52,000 sequences; about 210 (0.4%) were called active.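 How the source made its calls: active means gene whose silencing raises cell survival under the drug, median off-target-corrected z-score across its silencing RNAs 2 or more; inactive means the rest.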 This is one part of the list."}
{"assay": "Resistance to Poly (ADP-Ribose) Polymerase inhibitor: Gene Identification via Genome-wide siRNA Screen", "conditions": "mouse BRCA2 R2336H ES cells, olaparib, CellTiter-Glo viability; hits give high values", "outline": "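Mouse BRCA2 R2336H ES cells were reverse-transfected with siRNA (20 nM final), treated at 48 h with 500 nM olaparib, and read by CellTiter-Glo after 72 h. Scores: MAD-based z per siRNA, median per gene, seed off-target correction.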"}
{"sequence": "GCUAGAGCUCACCAAAUAATT against BC030396", "z-score": "inactive: -2.48"}
{"sequence": "GGAAGGUGCUAAAAAUAUATT against Pdhx", "z-score": "inactive: 0.573"}
{"sequence": "GGGUACAAUAUCCUUAAGUTT against D430033A06Rik", "z-score": "inactive: -0.51"}
{"sequence": "GGAGAGAGGACAACUUCUCTT against A530065E19Rik", "z-score": "inactive: 0.329"}
{"sequence": "GCCACGAAAAGAAGAGAAUTT against Vpreb2", "z-score": "inactive: 0.187"}
{"sequence": "GGAAAAAACCACGAUUGAGTT against Pecam1", "z-score": "inactive: 2.01"}
{"sequence": "GGAUGGCUAUCUUGUAAUUTT against AF397014", "z-score": "inactive: -0.555"}
{"sequence": "GGUAUUCGUUUCAUCUACATT against Hnrph1", "z-score": "inactive: 1.12"}
{"sequence": "GGAAAUCAGAUUCCUUAAATT against AW061290", "z-score": "inactive: 0.311"}
{"sequence": "GGCUUUGCUUUUUCUGUAUTT against Ppif", "z-score": "inactive: 0.935"}
{"sequence": "CCAAUUACGAGACUCUCAUTT against A730012O14Rik", "z-score": "inactive: -0.329"}
{"sequence": "GCUGAGAGAAAGGUUCACATT against Tube1", "z-score": "inactive: -1.3"}
{"sequence": "GGCUCAGAAACUAUUGAUATT against Rpgr", "z-score": "inactive: 1.09"}
{"sequence": "GGAAACAAAAGGAUUUCUGTT against Fbxl13", "z-score": "inactive: -0.0834"}
{"sequence": "GCUCAGAUGUAUAGACUCATT against Ap2a2", "z-score": "inactive: -1.03"}
{"sequence": "CGCAUUAGAGAGAUGAACATT against Centb2", "z-score": "inactive: -0.277"}
{"sequence": "GGAUGGAUUGCUGGUUACATT against E030013G06Rik", "z-score": "inactive: -1.41"}
{"sequence": "GGGAAGUGGGAUUCCUAAGTT against 2810453I06Rik", "z-score": "inactive: 0.185"}
{"sequence": "GGAGCUGAUCUUUUCAGUGTT against Slc35b3", "z-score": "inactive: -0.679"}
{"sequence": "GGGCAACAUUUUGGAUUAUTT against Naglu", "z-score": "inactive: 0.767"}
{"sequence": "GGUGUGCUCUGUAAAUCAUTT against Trappc2", "z-score": "inactive: 0.553"}
{"sequence": "GGCUUUUGAGAAUUCAUUCTT against Kcna5", "z-score": "inactive: -0.525"}
{"sequence": "GGCUUUAACAUCAAAGCAATT against 4930583H14Rik", "z-score": "inactive: 0.749"}
{"sequence": "CCUUUCUAACUACUCUCACTT against Olfr149", "z-score": "inactive: -0.919"}
{"sequence": "GGUGGUGUCAAAAUGAAGCTT against 3-Sep", "z-score": "inactive: -0.0105"}
{"sequence": "GCCCUCAUCAGAAGAAACUTT against 4930503B16Rik", "z-score": "inactive: -1.41"}
{"sequence": "GCUAGUCAUGCUACGGAAUTT against 9130023F12Rik", "z-score": "inactive: -1.82"}
{"sequence": "GCCCAUCAACCUAAUUUCATT against Tarbp2", "z-score": "inactive: -1.42"}
{"sequence": "GCUUGACCUUUUUACUCCUTT against Siglecl1", "z-score": "inactive: 2.08"}
{"sequence": "GGCUCGAAAGCGGUUCUUATT against Amfr", "z-score": "inactive: -2.1"}
{"sequence": "GGAACACCAUGAAGAAGACTT against Gabarap", "z-score": "inactive: 0.172"}
{"sequence": "GGAUCCACAAGCGACUCAUTT against Rps20", "z-score": "inactive: -3.28"}
{"sequence": "CCCAACUUAAAAGUACGUUTT against Hdac5", "z-score": "inactive: 0.071"}
{"sequence": "GGUGGAAUAAUGGACAAGATT against Blnk", "z-score": "inactive: -1.93"}
{"sequence": "GCGAGCUAUUCUUCCUUGUTT against Eif4a1", "z-score": "inactive: -1.37"}
{"sequence": "GGAAGAUGUGAUUUAUGACTT against 2810441C07Rik", "z-score": "inactive: 0.0636"}
{"sequence": "GGAUAAGAAGCGAUUUGAATT against Rcn2", "z-score": "inactive: -0.793"}
{"sequence": "GGAACUCUCCUUGCAUCAGTT against Lrrc6", "z-score": "inactive: 1.15"}
{"sequence": "GCGUGGACAAACUCUAUGATT against A930008A22Rik", "z-score": "inactive: -0.102"}
{"sequence": "GGACCGCCUUCAACAACAATT against Gtrgeo22", "z-score": "inactive: 0.623"}
{"sequence": "GCCACCACCAUAAAUAUAUTT against Thsd2", "z-score": "inactive: 0.0662"}
{"sequence": "GCCUUUACACUAAUGAUAATT against Cilp", "z-score": "inactive: 0.581"}
{"sequence": "GCUGAACAAUCGCUCAGUATT against 5830445C04Rik", "z-score": "inactive: -1.26"}
{"sequence": "GCUGAAGGCGACAAUGGAUTT against Ak2", "z-score": "inactive: -0.828"}
{"sequence": "GCUCUCUCCAUAUUAGUGGTT against Nkg7", "z-score": "inactive: -0.62"}
{"sequence": "GGACCAUUCAUUUCUGGAGTT against Riok3", "z-score": "inactive: 1.36"}
{"sequence": "GCAAUAGGUUUAAAGACAUTT against Tgm5", "z-score": "inactive: 0.977"}
{"sequence": "CCGACGAUGGCACAUUACATT against Ranbp3", "z-score": "inactive: -2.19"}
{"sequence": "GCCAAGAGCGAAAUGAGUGTT against Mcf2l", "z-score": "inactive: 0.218"}
{"sequence": "GGCUCAUCUGUCUAAAAUUTT against Spag1", "z-score": "inactive: -1.18"}
{"sequence": "GGAAGGAAACUGAUUGAGGTT against Slc30a7", "z-score": "inactive: 3.62"}
{"sequence": "GGAAGAGAAUAACUCAUCATT against Atp5s", "z-score": "inactive: -0.00542"}
{"sequence": "GGGAUCAAUGGCUACCUGUTT against Slc7a10", "z-score": "inactive: 0.058"}
{"sequence": "CAUGGAGGUCCUCAGAGACTT against Prb1", "z-score": "inactive: -1.32"}
{"sequence": "CCUCCUAUCGGCGAAGAAATT against Olfr282", "z-score": "inactive: -1.23"}
{"sequence": "GGGAAAUUUGGUGGCUACATT against Col14a1", "z-score": "inactive: -1.84"}
{"sequence": "GGUCAAUGAAGAUGAACUGTT against Fxyd2", "z-score": "inactive: 0.287"}
{"sequence": "GGUUGUCUGGAAUUUCCAUTT against Immp2l", "z-score": "inactive: -0.946"}
{"sequence": "CCAUCCCAUUAUUAUGUCCTT against Eif2c1", "z-score": "inactive: -0.685"}
{"sequence": "CCCACGGAAAACAAUAUUUTT against Cpeb4", "z-score": "inactive: 0.195"}
{"sequence": "GCCUAUAAGAACUUUUUCATT against Tnc", "z-score": "inactive: 1.02"}
{"sequence": "CCCUAAGCUGAAACGAAAUTT against Tas2r119", "z-score": "inactive: -0.0402"}
{"sequence": "GGAAAGUCCUGGGAAAUACTT against Olfr697", "z-score": "inactive: 0.411"}
{"sequence": "GAGAAUCCCUUCGAGUACGTT against Fxyd2", "z-score": "inactive: 0.437"}
{"sequence": "GCAGAUGUACUCUAAGGGUTT against Adam23", "z-score": "inactive: 2.5"}
{"sequence": "GGUUUUAGCCACAAGUAUGTT against Wdr50", "z-score": "inactive: 0.213"}
{"sequence": "GGGCAUCCUCUUCAAAGAUTT against 4930449E07Rik", "z-score": "inactive: 0.146"}
{"sequence": "GGCAGUAACUGUAAGCCUGTT against BC029214", "z-score": "inactive: -2.1"}
{"sequence": "UAGUGUCACCUACAGAGAATT against Sr278", "z-score": "inactive: -0.819"}
{"sequence": "CCACAAGGAACAAUGAUCCTT against Kirrel3", "z-score": "inactive: -0.526"}
{"sequence": "GGGCACACUAAUCAAUGAATT against Lilrb4", "z-score": "inactive: 1.55"}
{"sequence": "GGGAAAUUCUGUCUAUUUUTT against Bmp5", "z-score": "inactive: 0.432"}
{"sequence": "GGAAAACACAGCUACGGAATT against Ak5", "z-score": "inactive: 0.523"}
{"sequence": "CCAGUACGGCCCUAUGAAUTT against Zic2", "z-score": "inactive: -0.39"}
{"sequence": "CCAACGAAUUCUUGUUACUTT against Kcnc3", "z-score": "inactive: 0.222"}
{"sequence": "CCUUAUUUUGACCGUCCAATT against Ylpm1", "z-score": "inactive: 0.557"}
{"sequence": "GGCUGCUGCUCAGUCUUUATT against Pou2f1", "z-score": "inactive: -2.13"}
{"sequence": "CCCACAAAAUACCAAAUCCTT against Klk27", "z-score": "inactive: -1.34"}
{"sequence": "GGUCCAGAUACAGAACUGUTT against 2610103M17Rik", "z-score": "inactive: -2.5"}
{"sequence": "GCAAAGUGAAUAAGUUCUGTT against 9030227G01Rik", "z-score": "inactive: -0.149"}
{"sequence": "CUUAAAGUGAGAUGGUUUCTT against Hist2h2be", "z-score": "inactive: 0.112"}
{"sequence": "CGGCAACUAUCCAUUGAAATT against Cyp2c50", "z-score": "inactive: 0.0668"}
{"sequence": "GGUUACAUGCCCUACCUCATT against Def6", "z-score": "inactive: -2.32"}
{"sequence": "GGCAACAUGCGGACAACAUTT against Trim14", "z-score": "inactive: 0.721"}
{"sequence": "GCUUAGAUCACCUAAUGACTT against Adprtl3", "z-score": "inactive: 1.6"}
{"sequence": "GGGUCCAGAAAUCAUGUUATT against Slc35a5", "z-score": "inactive: -0.121"}
{"sequence": "GGCGGAUCUCUUGAGUGUUTT against 6230410P16Rik", "z-score": "inactive: 1.02"}
{"sequence": "GGCUUUCUUUUUGAAAGAATT against Arhgap10", "z-score": "inactive: 0.957"}
{"sequence": "CCCACUAAGGAGAUCAGUUTT against Lasp1", "z-score": "inactive: -0.24"}
{"sequence": "GCCGUUGCCUUUCAAGGGATT against Inhbe", "z-score": "inactive: 0.667"}
{"sequence": "GCACGCUCUUCAUUCGACATT against 1700067C01Rik", "z-score": "inactive: -0.00411"}
{"sequence": "CGACUUCAAAUCUGGGCCATT against Psmd14", "z-score": "inactive: -2.03"}
{"sequence": "CCUAUACAAGGGAGGUGAATT against Il1f10", "z-score": "inactive: -0.817"}
{"sequence": "GCAUUGACAUCGAUCAGAUTT against Irx1", "z-score": "inactive: 0.398"}
{"sequence": "GGAUAACCUCCUUACCGUCTT against 2010003J03Rik", "z-score": "inactive: 1.94"}
{"sequence": "GGCACAGGGACCAUUGUUGTT against Hsd17b1", "z-score": "active: 2.34"}
{"sequence": "GGAGUUGGUUCUGUGUUAUTT against Tcf7l2", "z-score": "inactive: 0.998"}
{"sequence": "GCCUAAUUAUGAUAGCAGUTT against Olfr639", "z-score": "inactive: 0.582"}
{"sequence": "CGCUGUUUGAAUUUGUAUUTT against AI429152", "z-score": "inactive: -1.02"}
{"sequence": "GGCGUGAUCGCUCUCCAAUTT against Ncoa5", "z-score": "inactive: -0.505"}
{"sequence": "GCCAGUGUUCAACUCAUGCTT against 1190005F20Rik", "z-score": "inactive: -1.01"}
{"sequence": "GGUAACAAUCCCAGAAUCCTT against Mpa2", "z-score": "inactive: -0.205"}
{"sequence": "GCUGAUCUUUUUCAACAUGTT against Tas2r102", "z-score": "inactive: 1.15"}
{"sequence": "GGCAUACAAAGCCCUCUAUTT against Kcnrg", "z-score": "inactive: -1.11"}
